# Screening data

Data taken from PubChem BioAssay AID1159506, deposited by NCATS (2015).

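Genome-wide siRNA knockdown in TC32 Ewing sarcoma cells, comparing luciferase light from an NR0B1-promoter reporter with a CMV-promoter reporter 48 hours after transfection.
Each siRNA was applied at 20 nM.
A z-score of the log NR0B1-over-CMV signal, less the median of siRNAs with the same seed; more negative means a stronger specific loss of the NR0B1 reporter.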

This is part of the screen; most of the strongest results are not listed here.
Sequences are the guide (antisense) strand, without overhang.

| # | strand | target gene | seed-corrected z-score |
|---|---|---|---|
| 1 | `UUCAAUACAGGAACAGUUG` | SLCO4C1 | -0.7994 |
| 2 | `ACAGCAAAGUGGCAUGUCC` | IGSF9B | -0.1816 |
| 3 | `UCAAUAAAGCUGGUGAUGG` | GDF5 | -0.5407 |
| 4 | `UUCUCAGACACCGAACUGC` | LOC285697 | -0.3437 |
| 5 | `AUAAGAAAAUGACUCAUUC` | CLEC6A | -0.7512 |
| 6 | `UCUGUUCCAACCCUGAGCC` | WWC2-AS2 | 0.7154 |
| 7 | `UUCCGGUUCACCUAUUUCC` | FAM208B | 0.7935 |
| 8 | `AUACUGUCUUGCAUAACUC` | MYSM1 | -1.495 |
| 9 | `UUUGGGAACGAGGUCCAGG` | ADPRHL1 | 0.1978 |
| 10 | `AUACGGGUAAGAACGGAGC` | BCORL1 | -0.3259 |
| 11 | `UGAACCUUGAUAGUCUUCC` | TTC27 | 0.748 |
| 12 | `UCUGAUUCCAUGAGAGUGU` | MEOX1 | 0.0597 |
| 13 | `AUGGUGACAUAGACGGUGC` | GAL3ST3 | -1.128 |
| 14 | `UACUCGAUCAUCAUUGUUC` | SWT1 | 0.141 |
| 15 | `AGAAUGUCCAGUCAGUUUC` | ARL6IP6 | -1.045 |
| 16 | `UCAUUUCGAUCAUCCAGGG` | CD99L2 | 1.114 |
| 17 | `AAAAGUGUAGCAAUCACCC` | NEK8 | 0.8181 |
| 18 | `UUCAUUCCCAUCUAUAAUU` | HNRNPA1 | 0.7855 |
| 19 | `AUAUGGGCUAGUAAGGUAG` | EPS15 | 0.6694 |
| 20 | `AAAAGGGACAGCUAGCGUG` | ARPC4 | 0.244 |
| 21 | `UUUUGCCCAAAACCAGCUC` | SCP2D1 | 1.335 |
| 22 | `UGCUGGUAGAGUUCAGUGU` | IFNA2 | -0.2168 |
| 23 | `UGAACUUCCAGUACCGACC` | SLC5A3 | -0.5146 |
| 24 | `UGUCUGACAAACUUCCCAG` | MCHR2-AS1 | 0.74 |
| 25 | `UACCGGAGGAACUAGGGUG` | CD99 | -0.4667 |
| 26 | `AAAGAGAGUAAGACGGUUG` | LRRC15 | 0.4961 |
| 27 | `UCCAUGAUCAACAACAUGC` | MAFB | 0.192 |
| 28 | `UUUGGGAAGAGAGUAACUC` | CENPA | 0.6821 |
| 29 | `AUAGUUGGAACCUCUCAGG` | ITGAL | 0.059 |
| 30 | `AUCGUUAGGAGAAAACAGG` | UBL3 | -1.592 |
| 31 | `UUUCCGUUGAAGUAGCUCG` | C16orf72 | -1.187 |
| 32 | `UCGUUGAUGGCUUCGAUGC` | GIPC3 | -0.372 |
| 33 | `UGAAUUAAGAGGUGCUGGG` | CD99P1 | 0.6091 |
| 34 | `UUCUGCUUAGUGACAGUGC` | CHEK2 | -1.119 |
| 35 | `UUCUGUACCACCUUGCUGC` | FASTK | 0.4241 |
| 36 | `UUAGCAGUAACUUACUCCC` | CHST5 | 0.2463 |
| 37 | `AAUAUGGUGCGCAAAUUUC` | MGAT4C | 1.201 |
| 38 | `UUCCGAUUCAUUCUGAGGC` | CNBD1 | -0.03993 |
| 39 | `UCAGUGACGCUGAACACGC` | NFIC | 0.7512 |
| 40 | `UUGGUGAUAAGUAACCAGC` | TPH1 | 0.5119 |
| 41 | `UGAAUUGGUAAAGCUUUCC` | RIPPLY2 | 0.5028 |
| 42 | `UAUCCUGAAGGCAAUAUUC` | ERICH2 | 0.5512 |
| 43 | `AUUCUGUUCUCUGAGCUCC` | KCP | 0.603 |
| 44 | `UGAGGGACUAGCAAUGGGC` | RNF122 | -1.62 |